Results taken from PMC10390580.
No constants are given. Whether binding was seen depends on the method and setting. In cells and extracts the contact can be indirect. Some results given as binding are weak or reduced against the parent protein; the word gives no strength.

By UniProt entry, the sequences of proteins in these tests, tags left out.
UniProt P03372: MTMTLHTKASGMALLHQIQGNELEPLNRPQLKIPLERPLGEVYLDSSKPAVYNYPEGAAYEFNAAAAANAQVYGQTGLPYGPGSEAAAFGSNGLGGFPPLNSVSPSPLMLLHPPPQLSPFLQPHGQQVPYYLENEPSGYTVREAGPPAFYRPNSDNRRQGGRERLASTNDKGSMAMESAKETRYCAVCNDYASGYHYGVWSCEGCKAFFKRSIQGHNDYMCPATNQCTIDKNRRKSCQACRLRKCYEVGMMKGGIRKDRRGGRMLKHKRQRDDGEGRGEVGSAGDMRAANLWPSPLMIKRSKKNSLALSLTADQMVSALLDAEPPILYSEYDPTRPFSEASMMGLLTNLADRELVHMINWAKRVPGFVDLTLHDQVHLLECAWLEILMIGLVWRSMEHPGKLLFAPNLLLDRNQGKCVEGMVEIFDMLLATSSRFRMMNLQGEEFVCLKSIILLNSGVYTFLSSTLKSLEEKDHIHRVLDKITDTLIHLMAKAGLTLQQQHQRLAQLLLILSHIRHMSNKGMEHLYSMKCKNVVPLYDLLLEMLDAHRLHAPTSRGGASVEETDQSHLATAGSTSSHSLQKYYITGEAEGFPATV

What was measured:
RNF181 [1] = target: T1, RNF181 (UniProt Q9P0P0); assay: co-IP; immunoprecipitation analysis of RNF181 with ERα and mapping to its AF1 domain (Fig. S4A); cell lysate, Protein A/G agarose beads, washed with NP-40 lysis buffer, Western blotting; cells and antibodies not told
T1 sequence: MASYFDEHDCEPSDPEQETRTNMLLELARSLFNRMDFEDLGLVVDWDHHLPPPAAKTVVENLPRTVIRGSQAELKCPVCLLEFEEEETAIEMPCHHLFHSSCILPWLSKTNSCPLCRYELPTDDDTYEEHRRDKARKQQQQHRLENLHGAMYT

RNF181 [2] = target: T1, RNF181; assay: co-IP; two different immunoprecipitation assays, cells with or without circRNA-SFMBT2 overexpression (Fig. 7L); cell lysate, Protein A/G agarose beads, Western blotting; cells and antibodies not told

binding (RNF181 [1]): binds
binding (RNF181 [2]): binds
Substance: Estrogen receptor alpha (ERα) (from UniProt P03372 1-595)
